Source: PubChem BioAssay AID1347125 (NCATS, 2019).

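Rh18 rhabdomyosarcoma cell line treated with compounds for 48 hours; luminescence from metabolically active cells is read as a measure of viability.
Follow-up testing used an 11-point dilution series reaching roughly 46 µM at the top.
The value is the fitted concentration giving half the maximal cell-killing effect; a lower value means a more potent compound.
Calls follow NCATS curve classes and activity scores: actives score 40 to 100, inconclusives 1 to 39, and flat class-4 curves are inactive with score 0.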

Values are in nM.
Every entry below has the call inconclusive.
These entries are mostly ones the record files as inconclusive; other results of the assay are not listed here.
A potency from a partial, single-point or poor curve is only a rough figure.
Some entries filed as inconclusive have a full curve.
Activity scores are not listed here.

| compound | potency (nM) | curve as filed |
|---|---|---|
| `CCOC(=O)[C@@H](N)Cc1ccc(-c2cc(O[C@H](c3ccc(Cl)cc3-n3ccc(C)n3)C(F)(F)F)nc(N)n2)cc1` | 29330 | cytotoxic, partial curve |
| `Cc1ccc2c(c1)C(=O)[C@]1(O)CCN(c3ccccc3)C1=N2` | 16493 | cytotoxic, partial curve |
| `Cc1cc(C2CCCCC2)n(O)c(=O)c1` | 1851 | cytotoxic, full curve, poor fit |
| `Cc1cn2c(-c3cn[nH]c3)cnc2c(Nc2ccc(C(=O)N3CCNCC3)cc2F)n1` | 16493 | cytotoxic, partial curve |
| `CCc1nc(N)nc(N)c1-c1ccc(Cl)cc1` | 9275 | cytotoxic, full curve, poor fit |
| `Nc1nc(Cl)nc2c1ncn2[C@@H]1O[C@H](CO)[C@@H](O)[C@@H]1F` | 736.7 | cytotoxic, full curve, poor fit |
| `OCCCNc1cc(-c2ccnc(Nc3cccc(Cl)c3)n2)ccn1` | 585.2 | cytotoxic, full curve |
| `O=C1c2c(O)cccc2[C@@H]([C@@H]2O[C@H](CO)[C@@H](O)[C@H](O)[C@H]2O)c2cc(CO)cc(O)c21` | 32909 | cytotoxic, single point |
| `COc1cc2c(NC3CCN(C(C)C)CC3)nc(C3CCCCC3)nc2cc1OCCCN1CCCC1` | 36924 | cytotoxic, single point |
| `CN(C)c1ccc(C2Nc3ccc4ccccc4c3C3=C2C(=O)CC(C)(C)C3)cc1Br` (configuration not stated) | 30205 | cytotoxic, partial curve |
| `Cc1ccc(NC(=O)C2(c3ccc4c(c3)OC(F)(F)O4)CC2)nc1-c1cccc(C(=O)O)c1` | 2614 | cytotoxic, full curve, poor fit |
| `Cc1nc(Nc2n[nH]c3c2CN(C(=O)N[C@H](CN(C)C)c2ccccc2)C3(C)C)c2sccc2n1` | 18506 | cytotoxic, partial curve, poor fit |
| `Cc1cc(C(=O)N2CCN(c3cccc(Cl)c3)CC2)n(-c2ccccc2)n1` | 2076 | cytotoxic, full curve, poor fit |
| `C[C@@H]1O[C@@H](O[C@@H]2C=C3CC[C@@H]4[C@@H](CC[C@]5(C)[C@H](c6ccc(=O)oc6)CC[C@@]45O)[C@@]3(C)CC2)[C@H](O)[C@H](O)[C@H]1O` | 29.3 | cytotoxic, full curve |
| `CN1CCN(CCCN2c3ccccc3Sc3ccc(Cl)cc32)CC1` | 18506 | cytotoxic, partial curve |
| `N[C@@H](Cc1ccc(N(CCCl)CCCl)cc1)C(=O)O` | 36924 | cytotoxic, single point |
| `O=C(O)c1ccc(-c2cc3cccnc3c(-c3ccc4nonc4c3)n2)cc1` | 7367 | cytotoxic, partial curve |
| `NC(=O)Nc1sc(-c2ccc(F)cc2)cc1C(N)=O` | 3291 | cytotoxic, full curve, poor fit |
| `COc1ccc(F)c(F)c1C(=O)c1cnc(NC2CCN(S(C)(=O)=O)CC2)nc1N` | 8266 | cytotoxic, full curve |
| `CC[C@H](NC(=O)[C@H](C)NC)C(=O)N1C[C@@H](O)C[C@H]1Cc1c(-c2[nH]c3cc(F)ccc3c2C[C@H]2C[C@H](O)CN2C(=O)[C@H](CC)NC(=O)[C@H](C)NC)[nH]c2cc(F)ccc12` | 23297 | cytotoxic, partial curve, poor fit |
| `O=C1NCCc2[nH]c(-c3ccncc3)cc21` | 11676 | cytotoxic, single point |
| `COc1c(C)c2c(c(O)c1C/C=C(\C)CCC(=O)OCCN1CCOCC1)C(=O)OC2` | 2933 | cytotoxic, full curve, poor fit |
| `O=C(Nc1ncc(-c2cc(C(F)F)nn2-c2c(Cl)cccc2Cl)s1)C1CC1` | 927.5 | cytotoxic, full curve, poor fit |
| `CCc1c2c(nc3ccc(O)cc13)-c1cc3c(c(=O)n1C2)COC(=O)[C@]3(O)CC` | 3692 | cytotoxic, partial curve |
| `COc1ccc2c(Oc3ccc(NC(=O)c4c(C)n(CC(C)(C)O)n(-c5ccccc5)c4=O)cc3F)ccnc2c1` | 23297 | cytotoxic, partial curve, poor fit |
| `CON(C)C(=O)N1N=C(c2cc(F)ccc2F)S[C@]1(CCCN)c1ccccc1` | 3291 | cytotoxic, partial curve, poor fit |

Repeated from the top, 3 entries:

compound	potency (nM)	curve as filed
CCOC(=O)[C@@H](N)Cc1ccc(-c2cc(O[C@H](c3ccc(Cl)cc3-n3ccc(C)n3)C(F)(F)F)nc(N)n2)cc1	29330	cytotoxic, partial curve
Cc1ccc2c(c1)C(=O)[C@]1(O)CCN(c3ccccc3)C1=N2	16493	cytotoxic, partial curve
Cc1cc(C2CCCCC2)n(O)c(=O)c1	1851	cytotoxic, full curve, poor fit